One compound from patent US20100284925A1, “Small Molecule Intervention for Obesity” (priority 2006, published 2010) can be followed below.

In this assay the test system is NIH-3T3/L1 preadipocytes. Put plainly: Differentiation of NIH-3T3/L1 preadipocytes into adipocytes (oil red O or Nile Red staining). The format is cell-based. Particulars: 200 nM staurosporine added at differentiation induction with prieurianin. On the procedure: FIG. 7. […] NIH-3T3/L1 cells were induced into differentiation and simultaneously treated with 2 μM of prieurianin. Differentiated cells were stained with oil red O—FIG. 7A, undifferentiated control.
Histogram represents A510 nm absorbance of oil red O stain isopropanol extracts from cells. Results are means±S.E. of triplicate experiments.
FIG. 19. Effects of bufalin on preadipocyte differentiation, and dedifferentiation/delipidation in adipo-cytes. NIH-3T3/L1 cells were induced into differentiation and simultaneously treated with either 1 μM of bufalin or 2 μM of prieurianin. Differentiated cells were stained with Nile Red. Alternatively, preadipocytes were induced into differentiation and five days following differentiation, cells were treated with either 1 μM of bufalin or 2 μM of prieurianin for an additional five days and followed by staining with Nile Red. Stained cells were evaluated by fluorescence microscopy.
To determine the effects of prieurianin on the differentiation of preadipocytes to adipocytes, the NIH-3T3/L1 preadipocytes were treated with or without the drug at the same time when induction of differentiation was initiated.

Regarding `CN[C@@H]1C[C@H]2O[C@@](C)([C@@H]1OC)n1c3ccccc3c3c4c(c5c6ccccc6n2c5c31)C(=O)NC4` [staurosporine], the “effect on inhibition of differentiation by prieurianin” value is “partially reversed the inhibition by prieurianin”.
